Test results taken from the supplement of paper PMC11732987, “Enantioselective OTUD7B fragment discovery through chemoproteomics screening and high-throughput optimisation” (Communications Chemistry, 2025).
The list shows a part of the results. The data scatter; read single values as rough.

By UniProt entry, the sequences of proteins in these tests, tags left out. Where a name states a change or a piece, a line headed by the entry shows the natural chain unless it says otherwise. Residues count along the entry.
UniProt Q96RL1: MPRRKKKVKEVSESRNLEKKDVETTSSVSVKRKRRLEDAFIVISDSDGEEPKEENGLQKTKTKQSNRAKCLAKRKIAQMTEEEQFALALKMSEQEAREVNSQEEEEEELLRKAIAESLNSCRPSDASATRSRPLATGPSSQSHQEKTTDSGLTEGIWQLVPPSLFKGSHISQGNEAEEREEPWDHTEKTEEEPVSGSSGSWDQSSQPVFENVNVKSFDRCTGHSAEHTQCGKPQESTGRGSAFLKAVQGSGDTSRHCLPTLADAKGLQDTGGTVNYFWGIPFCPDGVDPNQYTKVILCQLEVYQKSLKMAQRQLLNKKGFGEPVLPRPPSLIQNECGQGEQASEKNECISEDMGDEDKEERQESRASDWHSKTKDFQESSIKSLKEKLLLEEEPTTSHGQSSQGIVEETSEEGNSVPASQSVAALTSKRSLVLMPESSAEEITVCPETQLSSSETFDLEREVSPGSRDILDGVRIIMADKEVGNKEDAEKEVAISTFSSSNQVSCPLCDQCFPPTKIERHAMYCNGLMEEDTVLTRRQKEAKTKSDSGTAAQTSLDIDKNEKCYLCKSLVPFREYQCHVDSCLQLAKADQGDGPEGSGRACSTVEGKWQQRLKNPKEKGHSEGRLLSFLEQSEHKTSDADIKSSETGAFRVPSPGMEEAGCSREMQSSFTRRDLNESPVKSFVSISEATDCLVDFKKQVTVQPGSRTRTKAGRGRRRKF
UniProt Q9BRT2: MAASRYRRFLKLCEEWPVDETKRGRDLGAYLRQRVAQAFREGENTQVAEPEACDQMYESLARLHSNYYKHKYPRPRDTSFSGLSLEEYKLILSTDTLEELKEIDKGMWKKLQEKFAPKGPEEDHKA
UniProt A6NIH7: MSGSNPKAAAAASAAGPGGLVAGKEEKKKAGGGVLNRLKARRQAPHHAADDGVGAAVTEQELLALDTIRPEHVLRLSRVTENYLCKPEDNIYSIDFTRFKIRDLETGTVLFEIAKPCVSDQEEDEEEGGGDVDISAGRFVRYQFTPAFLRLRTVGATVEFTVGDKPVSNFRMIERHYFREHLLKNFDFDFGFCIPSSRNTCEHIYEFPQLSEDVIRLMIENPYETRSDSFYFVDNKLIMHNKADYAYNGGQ
UniProt Q93008, whole entry, looked up: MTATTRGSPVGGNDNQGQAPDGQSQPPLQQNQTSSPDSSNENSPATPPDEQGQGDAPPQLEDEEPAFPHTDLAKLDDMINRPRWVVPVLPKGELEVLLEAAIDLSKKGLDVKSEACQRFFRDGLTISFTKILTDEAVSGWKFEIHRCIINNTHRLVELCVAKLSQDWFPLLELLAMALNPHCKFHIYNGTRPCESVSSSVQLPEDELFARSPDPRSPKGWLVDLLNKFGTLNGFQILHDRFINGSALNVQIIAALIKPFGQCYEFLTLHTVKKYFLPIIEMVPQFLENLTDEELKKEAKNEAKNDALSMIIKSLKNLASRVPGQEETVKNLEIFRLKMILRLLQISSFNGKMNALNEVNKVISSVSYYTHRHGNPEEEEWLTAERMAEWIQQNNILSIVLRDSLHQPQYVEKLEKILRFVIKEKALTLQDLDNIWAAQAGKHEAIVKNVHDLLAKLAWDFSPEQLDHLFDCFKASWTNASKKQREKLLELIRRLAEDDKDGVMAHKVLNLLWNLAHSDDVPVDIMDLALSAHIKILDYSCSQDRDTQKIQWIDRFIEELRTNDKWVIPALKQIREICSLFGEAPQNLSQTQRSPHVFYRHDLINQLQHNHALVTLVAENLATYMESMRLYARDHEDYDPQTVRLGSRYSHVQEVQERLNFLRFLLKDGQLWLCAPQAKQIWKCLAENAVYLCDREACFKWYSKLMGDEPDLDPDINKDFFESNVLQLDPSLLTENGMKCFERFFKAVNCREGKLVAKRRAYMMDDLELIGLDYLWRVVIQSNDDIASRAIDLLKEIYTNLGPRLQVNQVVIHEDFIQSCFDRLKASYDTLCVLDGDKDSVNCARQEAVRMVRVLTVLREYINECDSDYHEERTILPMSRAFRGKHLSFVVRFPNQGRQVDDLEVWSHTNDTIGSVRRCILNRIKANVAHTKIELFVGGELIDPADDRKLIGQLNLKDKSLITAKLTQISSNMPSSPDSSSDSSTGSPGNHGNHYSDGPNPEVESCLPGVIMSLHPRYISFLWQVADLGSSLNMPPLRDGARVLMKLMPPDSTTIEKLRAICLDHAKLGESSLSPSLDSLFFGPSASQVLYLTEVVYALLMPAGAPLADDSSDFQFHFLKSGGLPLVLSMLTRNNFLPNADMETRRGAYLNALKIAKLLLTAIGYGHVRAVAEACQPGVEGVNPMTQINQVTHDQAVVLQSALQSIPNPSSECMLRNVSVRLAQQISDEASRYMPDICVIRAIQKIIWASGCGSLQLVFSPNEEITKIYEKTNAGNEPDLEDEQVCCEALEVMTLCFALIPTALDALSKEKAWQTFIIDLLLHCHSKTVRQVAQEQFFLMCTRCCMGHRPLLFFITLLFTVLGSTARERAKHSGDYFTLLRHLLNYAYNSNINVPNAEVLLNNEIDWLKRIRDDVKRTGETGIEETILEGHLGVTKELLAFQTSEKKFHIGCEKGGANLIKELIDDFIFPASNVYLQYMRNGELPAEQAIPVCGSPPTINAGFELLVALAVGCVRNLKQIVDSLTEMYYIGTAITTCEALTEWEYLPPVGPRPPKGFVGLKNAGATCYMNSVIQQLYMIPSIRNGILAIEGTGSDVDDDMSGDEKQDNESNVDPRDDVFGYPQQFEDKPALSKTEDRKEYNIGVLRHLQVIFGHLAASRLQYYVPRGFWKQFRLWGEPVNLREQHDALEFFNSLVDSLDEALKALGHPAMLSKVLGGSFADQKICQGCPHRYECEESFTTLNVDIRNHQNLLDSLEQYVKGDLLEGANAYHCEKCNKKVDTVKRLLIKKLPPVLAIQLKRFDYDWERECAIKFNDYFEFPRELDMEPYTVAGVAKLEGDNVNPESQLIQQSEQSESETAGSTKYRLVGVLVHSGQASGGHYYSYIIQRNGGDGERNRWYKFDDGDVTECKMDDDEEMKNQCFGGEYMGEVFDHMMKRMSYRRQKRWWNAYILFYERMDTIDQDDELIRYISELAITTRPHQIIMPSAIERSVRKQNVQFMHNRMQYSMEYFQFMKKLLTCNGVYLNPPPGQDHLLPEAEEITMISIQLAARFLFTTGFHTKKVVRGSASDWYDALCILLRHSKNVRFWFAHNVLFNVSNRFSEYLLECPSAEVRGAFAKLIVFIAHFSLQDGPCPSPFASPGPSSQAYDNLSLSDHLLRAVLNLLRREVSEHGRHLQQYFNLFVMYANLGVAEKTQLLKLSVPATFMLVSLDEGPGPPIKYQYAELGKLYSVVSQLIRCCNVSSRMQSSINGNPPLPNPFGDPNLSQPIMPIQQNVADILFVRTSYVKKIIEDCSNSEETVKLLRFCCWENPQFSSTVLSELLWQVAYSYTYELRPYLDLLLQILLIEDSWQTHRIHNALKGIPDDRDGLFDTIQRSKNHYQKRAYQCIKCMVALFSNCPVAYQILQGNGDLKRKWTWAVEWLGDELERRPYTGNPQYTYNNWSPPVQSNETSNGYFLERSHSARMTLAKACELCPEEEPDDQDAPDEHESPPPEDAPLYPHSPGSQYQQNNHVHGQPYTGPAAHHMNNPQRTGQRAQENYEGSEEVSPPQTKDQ
UniProt O75691, 1754-1774: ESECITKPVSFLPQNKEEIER
UniProt Q9UPU5: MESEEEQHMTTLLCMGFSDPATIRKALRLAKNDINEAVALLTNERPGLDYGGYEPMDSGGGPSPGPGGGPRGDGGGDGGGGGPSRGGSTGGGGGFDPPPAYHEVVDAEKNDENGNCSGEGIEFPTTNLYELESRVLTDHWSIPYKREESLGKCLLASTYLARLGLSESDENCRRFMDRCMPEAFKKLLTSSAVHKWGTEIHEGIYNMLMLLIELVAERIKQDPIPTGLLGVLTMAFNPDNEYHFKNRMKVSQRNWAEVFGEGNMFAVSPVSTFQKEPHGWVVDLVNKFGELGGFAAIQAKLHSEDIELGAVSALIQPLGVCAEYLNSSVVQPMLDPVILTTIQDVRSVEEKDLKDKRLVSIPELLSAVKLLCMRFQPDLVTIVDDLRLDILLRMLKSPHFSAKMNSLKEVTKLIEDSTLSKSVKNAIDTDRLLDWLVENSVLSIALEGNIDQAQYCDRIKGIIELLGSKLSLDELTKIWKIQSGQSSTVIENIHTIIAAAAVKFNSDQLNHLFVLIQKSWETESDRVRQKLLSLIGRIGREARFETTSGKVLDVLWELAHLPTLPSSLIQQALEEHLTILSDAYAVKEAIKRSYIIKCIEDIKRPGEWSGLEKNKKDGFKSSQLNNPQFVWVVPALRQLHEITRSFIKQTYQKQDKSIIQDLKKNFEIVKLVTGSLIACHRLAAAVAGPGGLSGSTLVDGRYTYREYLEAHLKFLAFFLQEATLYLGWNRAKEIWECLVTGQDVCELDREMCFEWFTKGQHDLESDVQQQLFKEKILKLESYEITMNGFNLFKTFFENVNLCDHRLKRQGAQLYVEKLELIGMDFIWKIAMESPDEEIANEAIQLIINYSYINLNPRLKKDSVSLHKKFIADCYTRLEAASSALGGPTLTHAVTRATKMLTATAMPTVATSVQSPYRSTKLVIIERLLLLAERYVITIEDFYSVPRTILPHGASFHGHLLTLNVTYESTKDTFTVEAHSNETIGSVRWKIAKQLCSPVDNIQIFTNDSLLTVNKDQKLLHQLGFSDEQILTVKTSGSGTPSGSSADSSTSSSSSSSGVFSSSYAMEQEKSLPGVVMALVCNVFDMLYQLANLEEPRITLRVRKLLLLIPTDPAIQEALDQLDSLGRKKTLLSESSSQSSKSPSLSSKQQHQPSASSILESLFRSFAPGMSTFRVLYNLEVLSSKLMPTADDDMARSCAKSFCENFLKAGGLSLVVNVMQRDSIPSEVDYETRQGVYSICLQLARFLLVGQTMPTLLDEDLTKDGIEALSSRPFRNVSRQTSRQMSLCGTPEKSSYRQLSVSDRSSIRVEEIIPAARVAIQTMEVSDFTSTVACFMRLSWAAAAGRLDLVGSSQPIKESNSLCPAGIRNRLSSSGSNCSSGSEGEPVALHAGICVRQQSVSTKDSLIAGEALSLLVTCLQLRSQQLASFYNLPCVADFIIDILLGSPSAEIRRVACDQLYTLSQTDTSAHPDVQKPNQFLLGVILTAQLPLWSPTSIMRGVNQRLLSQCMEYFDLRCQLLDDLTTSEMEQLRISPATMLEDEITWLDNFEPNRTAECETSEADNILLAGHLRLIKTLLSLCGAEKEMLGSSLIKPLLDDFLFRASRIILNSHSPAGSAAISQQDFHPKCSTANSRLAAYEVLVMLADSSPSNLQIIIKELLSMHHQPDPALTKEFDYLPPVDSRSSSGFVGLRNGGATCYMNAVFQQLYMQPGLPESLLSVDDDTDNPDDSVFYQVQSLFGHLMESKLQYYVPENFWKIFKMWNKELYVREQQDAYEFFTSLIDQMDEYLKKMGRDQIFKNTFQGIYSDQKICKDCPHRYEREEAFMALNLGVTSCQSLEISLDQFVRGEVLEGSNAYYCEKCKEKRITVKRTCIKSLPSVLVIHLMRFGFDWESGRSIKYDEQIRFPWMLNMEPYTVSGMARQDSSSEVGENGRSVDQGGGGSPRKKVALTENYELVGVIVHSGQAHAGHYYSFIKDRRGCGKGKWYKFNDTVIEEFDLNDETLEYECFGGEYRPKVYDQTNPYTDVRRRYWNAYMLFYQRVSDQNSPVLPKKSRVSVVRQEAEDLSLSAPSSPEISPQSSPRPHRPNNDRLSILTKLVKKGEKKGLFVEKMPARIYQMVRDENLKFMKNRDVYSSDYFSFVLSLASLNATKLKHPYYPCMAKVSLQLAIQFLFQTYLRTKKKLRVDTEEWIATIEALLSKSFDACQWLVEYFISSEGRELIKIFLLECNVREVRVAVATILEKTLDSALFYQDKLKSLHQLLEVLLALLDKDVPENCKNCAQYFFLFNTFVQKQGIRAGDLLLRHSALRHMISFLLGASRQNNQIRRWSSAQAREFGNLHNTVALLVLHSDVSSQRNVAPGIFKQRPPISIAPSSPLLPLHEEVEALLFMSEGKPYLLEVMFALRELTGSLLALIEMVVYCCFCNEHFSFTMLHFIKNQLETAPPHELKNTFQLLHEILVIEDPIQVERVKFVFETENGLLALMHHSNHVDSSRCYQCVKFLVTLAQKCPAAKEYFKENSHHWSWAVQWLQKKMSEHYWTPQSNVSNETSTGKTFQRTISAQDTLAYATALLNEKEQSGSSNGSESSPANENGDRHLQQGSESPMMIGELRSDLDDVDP
UniProt P40337, whole entry, looked up: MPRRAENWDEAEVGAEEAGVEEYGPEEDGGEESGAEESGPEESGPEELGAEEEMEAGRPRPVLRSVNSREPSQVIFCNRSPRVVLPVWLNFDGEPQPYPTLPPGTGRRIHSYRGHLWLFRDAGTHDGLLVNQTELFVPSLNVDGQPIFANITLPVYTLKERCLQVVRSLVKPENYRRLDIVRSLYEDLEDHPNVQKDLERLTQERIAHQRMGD

Compound: ClCC(=O)N[C@@H]1CCCc2ccccc12
Test: log2 mean competition ratio of IA-DTB cysteine labelling (DMSO/compound) (log2 ratio); higher = stronger cysteine engagement by compound
Settings: 50 µM; treatment time: 4 h; cell line lysate: HEK293T
Method: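 IA-DTB competitive cysteine chemoproteomics in HEK293T RIPA lysate. Lysates were treated with compound 29 or 30 at 50 or 200 µM for 4 h, then IA-DTB (500 µM, 1 h), trypsin-digested, NeutrAvidin-enriched and analysed by diaPASEF. Competition ratio = intensity DMSO / intensity compound (n=4 treated, n=64 DMSO); binding: mean log2 CR ≥ 1 and p ≤ 0.05 plus QC filters. Target is the cysteine site.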

| Target | log2 mean competition ratio |
| --- | --- |
| UIMC1 C661 (UniProt Q96RL1) | 0.117 |
| UQCC2 C13 (UniProt Q9BRT2) | 0.201 |
| UIMC1 C601 (UniProt Q96RL1) | -0.0662 |
| UPF2 C990 (UniProt Q9HAU5) | 0.00522 |
| USP37 C538 (UniProt Q86T82) | 0.208 |
| VDAC2 C47 | -0.162 |
| UTP18 C302 (UniProt Q9Y5J1) | 0.0405 |
| UNC119B C201 (UniProt A6NIH7) | 0.132 |
| UTRN C2602 (UniProt P46939) | 0.13 |
| USP9X C1061 (UniProt Q93008) | 0.36 |
| UFL1 C372 (UniProt O94874) | 0.179 |
| UPF1 C165 (UniProt Q92900) | 0.495 |
| VKORC1L1 C58 | 0.262 |
| UTP20 C1757 (UniProt O75691) | -0.278 |
| VAC14 C101 (UniProt Q08AM6) | -0.273 |
| USP24 C2160 (UniProt Q9UPU5) | 0.63 |
| VHL C77 (UniProt P40337) | 0.163 |
| USP8 C748 (UniProt P40818) | -0.169 |
| VPS26C C243 (UniProt O14972) | -0.337 |
| UHRF1BP1L C1235 (UniProt A0JNW5) | 0.691 |

Same assay, conditions: 200 µM; treatment time: 4 h; cell line lysate: HEK293T

| Target | log2 mean competition ratio |
| --- | --- |
| UIMC1 C661 (UniProt Q96RL1) | 0.145 |
| UQCC2 C13 (UniProt Q9BRT2) | 0.0415 |
| UIMC1 C601 (UniProt Q96RL1) | 0.12 |
| UPF2 C990 (UniProt Q9HAU5) | 0.174 |
| USP37 C538 (UniProt Q86T82) | -0.0552 |
| VDAC2 C47 | 0.224 |
| UTP18 C302 (UniProt Q9Y5J1) | -0.277 |
| UNC119B C201 (UniProt A6NIH7) | 0.0607 |
| UTRN C2602 (UniProt P46939) | 0.274 |
| USP9X C1061 (UniProt Q93008) | -0.19 |
| UFL1 C372 (UniProt O94874) | 0.104 |
| UPF1 C165 (UniProt Q92900) | -0.168 |
| VKORC1L1 C58 | 0.0378 |
| UTP20 C1757 (UniProt O75691) | 0.0207 |
| VAC14 C101 (UniProt Q08AM6) | -0.247 |
| USP24 C2160 (UniProt Q9UPU5) | 0.959 |
| VHL C77 (UniProt P40337) | -0.205 |
| USP8 C748 (UniProt P40818) | -0.118 |
| VPS26C C243 (UniProt O14972) | -0.0458 |
| UHRF1BP1L C1235 (UniProt A0JNW5) | 0.15 |
